# In all, about 320,000 compounds went through this assay and about 22,000 (6.9%) were called active. Inconclusive results, whose numbers are uncertain, are shown with a selection of clear calls. Calls come from the whole dose curve; as a rule, active = well fitted inhibition curve with a large enough effect; inconclusive = small, poorly fitted or top-dose-only effect, or another doubt; inactive = no such curve, though single readings can be large or run the other way. Potencies beside an inconclusive call are fits to weak or partial responses and may not hold up.
# Test: Primary qHTS for delayed death inhibitors of the malarial parasite plastid, 96 hour incubation
# Settings: P. falciparum luciferase reporter growth; series mostly up to 28.7 µM
# Procedure, shortened: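 Cell-based qHTS: luciferase-tagged P. falciparum in erythrocytes (2% hematocrit, 0.05% parasitemia final) incubated with compounds for 96 hours, 37 C, 5% CO2; luciferase detection reagent then added and luminescence measured.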
# Potency is the fitted concentration of half-maximal effect.
row,SMILES,Potency
1,O=C(Cn1cnc2c(nnn2Cc2ccc(F)cc2)c1=O)NCc1ccco1,"inconclusive: 5.86 µM [inhibitor, single point]"
2,COc1ccc(/C=N/Nc2cc(N(C)C)nc(N(C)C)n2)cc1,active: 11.7 µM
3,Cc1ccc(S(=O)(=O)N(Cc2ccccc2)c2ccccc2C(=O)NCc2ccco2)cc1,active: 5.86 µM
4,CS(=O)(=O)c1cccc(C(=O)N(CCc2ccccc2)Cc2cccs2)c1,"inconclusive: 10.4 µM [inhibitor, single point]"
5,CC1CN(CCc2ccccc2)c2nc3c(c(=O)n(C)c(=O)n3C)n2C1 (stereo not given),"inconclusive: 16.5 µM [inhibitor, single point]"
6,COc1ccc2oc(=O)c(/C(C)=N/NC(=O)c3ccncc3)cc2c1,inactive
7,COC(=O)C1=C(C)N=C2SC(C)C(=O)N2C1c1cccc(F)c1 (stereo not given),inactive
8,CCN(CC)S(=O)(=O)c1ccc(C)c(NC(=O)COC(=O)CNC(=O)c2ccc(C(C)(C)C)cc2)c1,"inconclusive: 0.185 µM [inhibitor, partial curve, poor fit]"
9,CC1Cc2ccccc2N1C(=O)CNCCCN(C)C (stereo not given),inactive
10,Cc1cc(C)c(NC(=O)CSc2ccc(-c3ccccn3)nn2)c(C)c1,"inconclusive: 18.5 µM [inhibitor, single point]"
11,COC/C=C/C1=CC2=CC(=O)C(C)(OC(=O)c3cnc4ccccc4n3)C(=O)C2=CN1CCCCO (stereo not given),"inconclusive: 18.5 µM [inhibitor, single point]"
12,Cc1nc(C)c(C(=O)N2CCCC(C(=O)c3ccc(Cl)cc3C)C2)s1 (stereo not given),active: 13.1 µM
13,COc1ccc(/C=C2\SC(=O)N(CC(=O)Nc3cccc(C)c3)C2=O)cc1O,"inconclusive: 18.5 µM [inhibitor, single point]"
14,CCC(c1nnc(SC(C)C(=O)NC2CC2)n1-c1ccc(OC)cc1)N(C)C (stereo not given),"inconclusive: 10.4 µM [inhibitor, partial curve, poor fit]"
15,CNc1nc(SC)nc(N(C#N)CC(=O)OC)n1,active: 8.28 µM
16,COc1ccc(Nc2nc(N)nc(CN3CCC(C)CC3)n2)cc1,inactive
17,CC(C)C[C@@]12C(=O)N(c3cccc(Br)c3)C(=O)N1[C@H](c1ccc(Cl)cc1)[C@@H]1C(=O)N(C3CCCCC3)C(=O)[C@@H]12,"inconclusive: 1.85 µM [inhibitor, full curve]"
18,COc1ccc(NC(=O)C2CCCN(S(C)(=O)=O)C2)cc1Cl (stereo not given),"inconclusive: 18.5 µM [inhibitor, single point]"
19,CCN(CC)CCCNC(=O)c1ccc(C)c(NC(=O)C2=C(C)OCCS2)c1,"inconclusive: 4.15 µM [inhibitor, single point]"
20,CSc1ncccc1C(=O)NCC(c1cccs1)N1CCOCC1 (stereo not given),inactive
21,CC(C)(CNC(=O)c1ccc(S(=O)(=O)Nc2ccccc2F)cc1)N1CCOCC1,inactive
22,C=CCNC(=O)Nc1ccc(Cl)cn1,inactive
23,Cc1ccccc1CNC(=O)CCc1ccccc1,"inconclusive: 4.65 µM [inhibitor, partial curve]"

# An excerpt from above in order of length of the SMILES, high to low:
row,SMILES,Potency
8,CCN(CC)S(=O)(=O)c1ccc(C)c(NC(=O)COC(=O)CNC(=O)c2ccc(C(C)(C)C)cc2)c1,"inconclusive: 0.185 µM [inhibitor, partial curve, poor fit]"
14,CCC(c1nnc(SC(C)C(=O)NC2CC2)n1-c1ccc(OC)cc1)N(C)C (stereo not given),"inconclusive: 10.4 µM [inhibitor, partial curve, poor fit]"
16,COc1ccc(Nc2nc(N)nc(CN3CCC(C)CC3)n2)cc1,inactive

# Additional entries follow:

row,SMILES,Potency
1,CN(C)/N=C/c1ccc(OC(=O)c2cccc([N+](=O)[O-])c2)cc1,"inconclusive: 18.5 µM [inhibitor, single point]"
2,CC(C)(C)C(=O)CSc1nccc(=O)[nH]1,"inconclusive: 9.28 µM [inhibitor, single point]"
3,O=C(O)C(c1ccccc1)N1C(=O)/C(=C\c2ccc(-c3ccccc3Cl)o2)SC1=S (stereo not given),"inconclusive: 18.5 µM [inhibitor, single point]"
4,O=C(CCl)c1ccc2c(c1)CCN2C(=O)C1CCCCC1,"inconclusive: 13.1 µM [inhibitor, partial curve, poor fit]"
5,Cc1cccc(NC(=O)CN2C(=O)N/C(=C/c3cc(C)n(C(C)C)c3C)C2=O)c1,"inconclusive: 6.57 µM [inhibitor, partial curve, poor fit]"
6,CCN1CCN(c2ncnc3c2cnn3-c2ccc(C)cc2C)CC1,"inconclusive: 3.7 µM [inhibitor, partial curve]"
7,COc1cc(O)c(C(CC(=O)N2CCN(c3ccccc3)CC2)c2ccc3c(c2)OCO3)c(OC)c1 (stereo not given),"inconclusive: 18.5 µM [inhibitor, single point]"
8,O=C(CCl)Nc1cn(-c2ccccc2)nc1-c1ccccc1,"inconclusive: 4.15 µM [inhibitor, partial curve, poor fit]"
9,COc1cc(OC)c(/C=N/N2CCN(c3ccccc3OC)CC2)c(OC)c1,"inconclusive: 9.28 µM [inhibitor, single point]"
10,O=C(COc1ccc(F)cc1)NCC1CCCO1 (stereo not given),active: 1.65 µM
11,CC1=CC(=O)C=CC1(C)C(Cl)Cl (stereo not given),"inconclusive: 0.294 µM [inhibitor, partial curve, poor fit]"
12,CCN(CC(=O)NCc1cccs1)C(=O)/C=C/c1ccc(OC)c(OC)c1,inactive
13,COc1cccc(CC2(CO)CCCN(S(=O)(=O)N(C)C)C2)c1 (stereo not given),active: 6.57 µM
14,Cc1nn(C(=O)Cn2ccc([N+](=O)[O-])n2)c(C)c1Cl,"inconclusive: 0.738 µM [inhibitor, partial curve, poor fit]"
15,CCCCc1c(C)nc(Nc2ccc(OC)cc2)[nH]c1=O,inactive
16,CCCCn1c(N)nc2ccccc21,"inconclusive: 18.5 µM [inhibitor, single point]"
17,COc1ccc(N2C(=O)CC(SCCc3nc4ccccc4[nH]3)C2=O)cc1 (stereo not given),inactive
18,CCOC(=O)C1(Cc2cccc(OC)c2)CCN(Cc2cccc3cnccc23)CC1,"inconclusive: 0.0041 µM [inhibitor, full curve, poor fit]"
19,COc1ccc(-c2cc(C(=O)Nc3cc(Cl)ccc3O)no2)cc1,"inconclusive: 11.7 µM [inhibitor, single point]"
20,CS(=O)(=O)N(CC(=O)N1CCc2ccccc2C1)c1cccc([N+](=O)[O-])c1,"inconclusive: 16.5 µM [inhibitor, single point]"
21,COc1cc(Sc2ccc(C)cc2)c(OC)cc1N,inactive
22,COc1ccc(C(CNC(=O)c2cccc(S(=O)(=O)NCc3ccccc3)c2)N2CCOCC2)cc1 (stereo not given),"inconclusive: 9.28 µM [inhibitor, partial curve, poor fit]"

# — PubChem BioAssay AID504834 (National Center for Advancing Translational Sciences (NCATS), 2011)
